In patent US20260234234A1:
No constants are given. Whether binding was seen depends on the method and setting. Some entries that bind do so weakly or less than the wild type. Tags and fused reporters may be left off the sequences shown.

Protein sequences, listed by entry. Tags and fused reporters are not part of them. Residues count along the entry.
UniProt Q969D9, residues 29-159: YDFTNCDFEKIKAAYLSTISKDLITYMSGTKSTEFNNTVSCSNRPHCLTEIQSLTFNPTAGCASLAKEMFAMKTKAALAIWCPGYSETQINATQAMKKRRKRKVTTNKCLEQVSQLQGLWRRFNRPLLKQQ

Target: T1, hTSLPR-Fc dimer molecules from R&D Systems (cat. no. 981-TR) (human) (UniProt Q9HC73)
T1 sequence (looked up): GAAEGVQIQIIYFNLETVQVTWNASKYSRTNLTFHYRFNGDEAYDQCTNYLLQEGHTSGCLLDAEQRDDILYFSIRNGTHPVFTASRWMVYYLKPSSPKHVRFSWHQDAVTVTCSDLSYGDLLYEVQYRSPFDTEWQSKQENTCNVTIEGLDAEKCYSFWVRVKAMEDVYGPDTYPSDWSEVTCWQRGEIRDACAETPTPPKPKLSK
Experiment: SPR, hTSLPR-Fc immobilised on CM5, hTSLP 0-50 nM (FIG. 10A)

- binding: binds
Substance: hTSLP antigen, version not stated (from UniProt Q969D9 29-159) (ligand)
